{"source": "patent US20100330617A1", "about": "(Sanofi, published 2010)", "binders": {"B1": {"name": "murine β-glucocerebrosidase (enzyme, mouse, UniProt P17439 20-515, looked up)", "chain": "AQPCIPKSFGYSSVVCVCNASYCDSLDPVTLPALGTFSRYESTRRGRRMELSVGAIQANRTGTGLLLTLQPEKKFQKVKGFGGAMTDATALNILALSPPTQKLLLRSYFSTNGIEYNIIRVPMASCDFSIRVYTYADTPNDFQLSNFSLPEEDTKLKIPLIHQALKMSSRPISLFASPWTSPTWLKTNGRVNGKGSLKGQPGDIFHQTWANYFVKFLDAYAKYGLRFWAVTAENEPTAGLFTGYPFQCLGFTPEHQRDFISRDLGPALANSSHDVKLLMLDDQRLLLPRWAEVVLSDPEAAKYVHGIAVHWYMDFLAPAKATLGETHRLFPNTMLFASEACVGSKFWEQSVRLGSWDRGMQYSHSIITNLLYHVTGWTDWNLALNPEGGPNWVRNFVDSPIIVDIPKDAFYKQPMFYHLGHFSKFIPEGSQRVALVASESTDLETVALLRPDGSAVVVVLNRSSEDVPLTISDPDLGFLETVSPGYSIHTYLWRRQ"}}, "molecular_target": "myc-tagged murine LIMP-2 (mouse)", "assay": "co-immunoprecipitation from COS-7 cells co-transfected with LIMP-2-myc and mouse βGC, immunoblot", "note": "These are yes or no findings as the source states them, for the method shown. In cells and extracts the contact can be indirect. Binding can be weak; no strength is given. Tags and fused reporters may be left off the sequences shown.", "data": [{"binder": "B1", "values": [{"measurement": "binding", "result": "binds"}]}]}
